The supplement of paper PMC10849652
Some of the results follow.

By UniProt entry, the sequences of proteins in these tests, tags left out. Where a name states a change or a piece, a line headed by the entry shows the natural chain unless it says otherwise.
UniProt Q6ZWT7: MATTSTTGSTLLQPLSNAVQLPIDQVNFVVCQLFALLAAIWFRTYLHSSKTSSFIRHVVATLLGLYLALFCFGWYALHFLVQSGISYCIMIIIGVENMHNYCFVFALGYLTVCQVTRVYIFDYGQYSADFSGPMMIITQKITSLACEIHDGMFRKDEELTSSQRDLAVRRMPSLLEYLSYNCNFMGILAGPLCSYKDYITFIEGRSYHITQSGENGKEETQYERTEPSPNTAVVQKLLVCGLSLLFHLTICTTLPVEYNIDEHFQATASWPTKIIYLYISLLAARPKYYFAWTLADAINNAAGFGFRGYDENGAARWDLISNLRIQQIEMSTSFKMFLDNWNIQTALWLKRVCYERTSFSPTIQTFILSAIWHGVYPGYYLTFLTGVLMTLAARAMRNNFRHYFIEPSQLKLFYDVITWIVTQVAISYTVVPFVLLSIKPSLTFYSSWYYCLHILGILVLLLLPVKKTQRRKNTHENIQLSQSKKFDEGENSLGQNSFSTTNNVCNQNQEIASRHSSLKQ
UniProt P61244, whole entry, looked up: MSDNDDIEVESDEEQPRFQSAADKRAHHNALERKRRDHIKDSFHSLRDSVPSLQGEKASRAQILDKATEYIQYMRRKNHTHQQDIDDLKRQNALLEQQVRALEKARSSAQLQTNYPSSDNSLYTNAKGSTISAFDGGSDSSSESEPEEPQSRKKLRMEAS
UniProt Q7Z434: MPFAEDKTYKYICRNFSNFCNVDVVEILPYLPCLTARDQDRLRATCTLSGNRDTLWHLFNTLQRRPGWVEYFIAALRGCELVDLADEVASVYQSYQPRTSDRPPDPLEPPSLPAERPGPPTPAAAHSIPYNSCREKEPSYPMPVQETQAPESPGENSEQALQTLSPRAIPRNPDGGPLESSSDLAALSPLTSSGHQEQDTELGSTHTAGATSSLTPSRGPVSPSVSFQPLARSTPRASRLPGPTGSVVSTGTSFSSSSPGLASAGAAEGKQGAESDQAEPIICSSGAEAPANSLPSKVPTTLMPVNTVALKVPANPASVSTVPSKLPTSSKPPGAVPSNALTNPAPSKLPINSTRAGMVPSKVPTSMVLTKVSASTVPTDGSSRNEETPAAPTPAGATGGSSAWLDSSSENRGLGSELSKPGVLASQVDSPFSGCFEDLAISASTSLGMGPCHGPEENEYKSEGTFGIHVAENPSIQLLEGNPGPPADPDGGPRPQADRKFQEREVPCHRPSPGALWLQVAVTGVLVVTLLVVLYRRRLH
UniProt Q9BTE3: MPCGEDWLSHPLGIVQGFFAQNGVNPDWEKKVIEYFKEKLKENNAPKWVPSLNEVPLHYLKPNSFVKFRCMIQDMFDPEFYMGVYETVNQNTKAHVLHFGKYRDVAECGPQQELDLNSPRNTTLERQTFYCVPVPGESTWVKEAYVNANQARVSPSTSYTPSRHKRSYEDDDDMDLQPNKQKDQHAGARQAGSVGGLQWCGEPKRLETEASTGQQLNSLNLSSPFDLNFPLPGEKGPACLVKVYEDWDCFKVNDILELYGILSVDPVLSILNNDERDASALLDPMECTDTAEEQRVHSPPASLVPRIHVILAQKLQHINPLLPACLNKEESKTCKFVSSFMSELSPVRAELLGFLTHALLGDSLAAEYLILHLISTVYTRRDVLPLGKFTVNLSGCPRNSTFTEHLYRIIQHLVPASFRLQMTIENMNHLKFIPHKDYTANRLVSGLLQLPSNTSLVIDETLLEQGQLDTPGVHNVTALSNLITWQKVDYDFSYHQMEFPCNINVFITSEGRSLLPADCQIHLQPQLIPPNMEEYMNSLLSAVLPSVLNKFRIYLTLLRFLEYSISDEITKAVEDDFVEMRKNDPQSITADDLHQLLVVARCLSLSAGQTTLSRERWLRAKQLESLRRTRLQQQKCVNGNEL
UniProt Q86U44, whole entry, looked up: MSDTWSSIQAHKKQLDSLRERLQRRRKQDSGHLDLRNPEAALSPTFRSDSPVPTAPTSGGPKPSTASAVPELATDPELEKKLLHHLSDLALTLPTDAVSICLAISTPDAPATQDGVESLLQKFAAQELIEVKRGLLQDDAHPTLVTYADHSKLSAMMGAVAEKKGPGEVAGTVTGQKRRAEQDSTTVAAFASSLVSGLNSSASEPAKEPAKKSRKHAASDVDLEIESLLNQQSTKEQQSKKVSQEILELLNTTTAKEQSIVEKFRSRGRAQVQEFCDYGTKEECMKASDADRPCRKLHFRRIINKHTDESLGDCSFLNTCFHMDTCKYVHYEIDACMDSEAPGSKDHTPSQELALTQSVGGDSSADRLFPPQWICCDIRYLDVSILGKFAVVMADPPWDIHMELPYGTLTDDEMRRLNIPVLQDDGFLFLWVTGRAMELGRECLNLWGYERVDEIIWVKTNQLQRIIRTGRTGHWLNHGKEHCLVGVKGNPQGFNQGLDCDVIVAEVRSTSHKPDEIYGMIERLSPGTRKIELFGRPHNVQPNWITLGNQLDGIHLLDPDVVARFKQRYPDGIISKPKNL
UniProt Q14814: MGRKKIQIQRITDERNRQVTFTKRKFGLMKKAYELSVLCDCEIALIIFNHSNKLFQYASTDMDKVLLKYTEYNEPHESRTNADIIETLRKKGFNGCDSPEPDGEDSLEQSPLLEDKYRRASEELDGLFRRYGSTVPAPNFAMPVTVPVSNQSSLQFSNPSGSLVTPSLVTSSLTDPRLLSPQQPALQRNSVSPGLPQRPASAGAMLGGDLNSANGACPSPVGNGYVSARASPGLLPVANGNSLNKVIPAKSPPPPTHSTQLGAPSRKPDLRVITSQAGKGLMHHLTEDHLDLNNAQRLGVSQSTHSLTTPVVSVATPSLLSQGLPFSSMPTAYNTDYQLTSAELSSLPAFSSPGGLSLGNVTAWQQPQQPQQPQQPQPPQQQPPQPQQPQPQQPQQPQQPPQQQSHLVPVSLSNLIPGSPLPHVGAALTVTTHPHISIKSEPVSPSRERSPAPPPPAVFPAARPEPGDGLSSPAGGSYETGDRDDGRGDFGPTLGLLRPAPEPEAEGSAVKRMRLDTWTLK
UniProt P55081: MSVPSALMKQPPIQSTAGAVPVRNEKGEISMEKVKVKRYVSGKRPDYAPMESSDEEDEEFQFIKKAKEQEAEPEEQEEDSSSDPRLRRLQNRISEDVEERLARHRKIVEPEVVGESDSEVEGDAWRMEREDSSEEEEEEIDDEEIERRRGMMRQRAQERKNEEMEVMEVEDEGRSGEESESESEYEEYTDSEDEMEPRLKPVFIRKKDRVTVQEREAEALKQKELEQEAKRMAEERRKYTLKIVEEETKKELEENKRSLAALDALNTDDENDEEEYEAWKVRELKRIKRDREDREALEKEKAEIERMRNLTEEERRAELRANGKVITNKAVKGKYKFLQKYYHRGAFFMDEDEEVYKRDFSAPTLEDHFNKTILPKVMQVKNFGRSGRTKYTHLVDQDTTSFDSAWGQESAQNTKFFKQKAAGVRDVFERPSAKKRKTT
UniProt Q9Y316: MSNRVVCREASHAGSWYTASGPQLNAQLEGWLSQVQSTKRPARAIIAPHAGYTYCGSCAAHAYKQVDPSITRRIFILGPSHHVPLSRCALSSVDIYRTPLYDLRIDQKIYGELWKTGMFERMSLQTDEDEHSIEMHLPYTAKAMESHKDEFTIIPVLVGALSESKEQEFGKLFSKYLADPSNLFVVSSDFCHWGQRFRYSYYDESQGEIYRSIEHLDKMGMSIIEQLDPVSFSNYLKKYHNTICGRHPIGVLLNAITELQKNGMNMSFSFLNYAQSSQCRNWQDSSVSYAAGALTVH
UniProt Q96PC5: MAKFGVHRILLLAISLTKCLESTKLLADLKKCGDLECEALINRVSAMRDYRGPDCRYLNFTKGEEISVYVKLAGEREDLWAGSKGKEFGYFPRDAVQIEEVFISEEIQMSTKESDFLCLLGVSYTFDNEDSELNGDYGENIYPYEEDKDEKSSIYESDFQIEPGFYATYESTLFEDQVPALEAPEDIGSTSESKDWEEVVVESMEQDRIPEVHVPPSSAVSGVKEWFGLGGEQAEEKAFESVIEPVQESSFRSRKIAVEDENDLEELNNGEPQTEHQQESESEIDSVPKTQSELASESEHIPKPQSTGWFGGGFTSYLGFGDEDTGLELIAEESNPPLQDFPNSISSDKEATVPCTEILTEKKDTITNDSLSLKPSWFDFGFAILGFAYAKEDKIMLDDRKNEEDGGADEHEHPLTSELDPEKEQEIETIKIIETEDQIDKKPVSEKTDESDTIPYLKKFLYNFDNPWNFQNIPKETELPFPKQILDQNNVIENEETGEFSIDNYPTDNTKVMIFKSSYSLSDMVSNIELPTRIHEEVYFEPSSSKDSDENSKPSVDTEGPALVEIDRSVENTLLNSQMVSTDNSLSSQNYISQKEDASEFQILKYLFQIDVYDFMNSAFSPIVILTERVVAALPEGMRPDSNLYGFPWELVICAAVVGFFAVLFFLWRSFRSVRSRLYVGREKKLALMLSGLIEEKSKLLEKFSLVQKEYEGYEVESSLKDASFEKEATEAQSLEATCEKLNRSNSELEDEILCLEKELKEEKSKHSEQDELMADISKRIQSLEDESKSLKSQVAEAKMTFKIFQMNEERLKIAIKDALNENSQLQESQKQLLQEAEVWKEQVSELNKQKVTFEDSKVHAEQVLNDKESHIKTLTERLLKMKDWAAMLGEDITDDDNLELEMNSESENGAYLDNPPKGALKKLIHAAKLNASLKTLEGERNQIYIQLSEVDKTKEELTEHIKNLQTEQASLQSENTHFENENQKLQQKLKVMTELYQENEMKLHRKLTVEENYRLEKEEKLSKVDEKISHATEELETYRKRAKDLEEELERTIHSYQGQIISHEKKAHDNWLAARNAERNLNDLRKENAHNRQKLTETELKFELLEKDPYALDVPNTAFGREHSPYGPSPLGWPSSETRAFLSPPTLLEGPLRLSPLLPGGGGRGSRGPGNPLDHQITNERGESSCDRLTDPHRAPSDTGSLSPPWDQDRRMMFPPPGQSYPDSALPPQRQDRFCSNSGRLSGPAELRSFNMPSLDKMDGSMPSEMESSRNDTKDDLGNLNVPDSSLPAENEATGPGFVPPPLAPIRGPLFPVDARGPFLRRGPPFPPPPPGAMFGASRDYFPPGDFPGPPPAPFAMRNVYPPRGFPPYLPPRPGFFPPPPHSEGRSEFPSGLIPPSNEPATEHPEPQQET
UniProt Q9NWR8: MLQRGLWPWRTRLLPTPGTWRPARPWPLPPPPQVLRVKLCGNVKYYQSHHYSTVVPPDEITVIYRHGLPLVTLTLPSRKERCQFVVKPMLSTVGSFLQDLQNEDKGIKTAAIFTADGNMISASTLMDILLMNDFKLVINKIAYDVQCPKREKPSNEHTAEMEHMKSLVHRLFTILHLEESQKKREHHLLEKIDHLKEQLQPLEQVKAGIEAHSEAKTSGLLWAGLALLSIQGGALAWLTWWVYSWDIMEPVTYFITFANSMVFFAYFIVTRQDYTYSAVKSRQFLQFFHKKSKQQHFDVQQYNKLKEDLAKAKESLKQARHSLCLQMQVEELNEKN
UniProt Q9H8H3: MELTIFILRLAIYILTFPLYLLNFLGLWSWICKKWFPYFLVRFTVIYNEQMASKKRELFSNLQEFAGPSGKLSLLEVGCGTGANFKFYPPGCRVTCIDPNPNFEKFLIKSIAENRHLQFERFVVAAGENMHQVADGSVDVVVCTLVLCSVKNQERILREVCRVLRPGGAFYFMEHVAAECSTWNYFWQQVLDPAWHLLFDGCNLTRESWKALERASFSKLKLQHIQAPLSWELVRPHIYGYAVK
UniProt O43934: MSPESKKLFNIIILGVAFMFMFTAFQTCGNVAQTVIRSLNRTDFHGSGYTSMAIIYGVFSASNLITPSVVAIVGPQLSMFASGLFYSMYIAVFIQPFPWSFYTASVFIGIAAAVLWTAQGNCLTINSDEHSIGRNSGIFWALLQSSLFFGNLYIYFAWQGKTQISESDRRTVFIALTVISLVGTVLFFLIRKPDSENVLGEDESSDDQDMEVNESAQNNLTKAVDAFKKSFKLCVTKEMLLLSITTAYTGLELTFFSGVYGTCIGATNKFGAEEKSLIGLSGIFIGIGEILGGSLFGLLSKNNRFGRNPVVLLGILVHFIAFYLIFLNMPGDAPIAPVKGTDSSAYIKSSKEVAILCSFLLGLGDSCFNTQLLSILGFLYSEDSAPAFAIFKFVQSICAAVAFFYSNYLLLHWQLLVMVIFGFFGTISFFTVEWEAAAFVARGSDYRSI
UniProt O95983: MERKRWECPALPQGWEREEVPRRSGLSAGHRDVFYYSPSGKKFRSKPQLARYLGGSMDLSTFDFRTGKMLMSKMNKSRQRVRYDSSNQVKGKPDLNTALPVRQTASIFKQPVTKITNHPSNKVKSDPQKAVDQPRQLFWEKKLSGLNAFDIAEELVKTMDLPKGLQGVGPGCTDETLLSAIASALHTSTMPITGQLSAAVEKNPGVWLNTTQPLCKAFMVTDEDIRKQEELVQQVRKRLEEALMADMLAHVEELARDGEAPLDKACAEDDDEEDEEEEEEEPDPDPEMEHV

Key:
Test in all cases: log2 fold change, soluble protein after heating vs DMSO (PISA); higher = thermal stabilisation; K562 cells, 10 uM, 30 min; active = over 0.2 and 3.5 SD of the protein, either way, in both replicates (recomputed)
[1] = compound: COC1=CC=C(C=C1)CN2C=CC3=C2C=C(C=C3)C(=O)NO
Outline: (§1)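 K562 cells at 2×10^6 cells/mL were exposed to 10 μM compound for 30 min, then aliquots were heated for 3 min across 48°C-58°C, pooled, and extracted in PBS containing 0.5% NP-40 at 4°C. The supernatant after 21,000xg for 90 min was taken as soluble protein and measured by TMTpro 16plex LC-MS/MS with channel sums equalised. Thermal stability is reported relative to control samples, with values from duplicates. Fold changes are given on a log2 scale.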

[2] = compound: CON(C)C(=O)N1N=C(c2cc(F)ccc2F)S[C@@]1(CCCN)c1ccccc1 [filanesib]
Outline: as §1

[3] = compound: CO[C@H]1C[C@@H]2CC[C@@H](C)[C@@](O)(O2)C(=O)C(=O)N2CCCC[C@H]2C(=O)O[C@H]([C@H](C)C[C@@H]2CC[C@H](n3cnnn3)[C@H](OC)C2)CC(=O)[C@H](C)/C=C(\C)[C@@H](O)[C@@H](OC)C(=O)[C@H](C)C[C@H](C)/C=C/C=C/C=C/1C [zotarolimus]
Outline: as §1

[4] = compound: COc1cc(C(=O)O)ccc1NC(=O)[C@@H]1N[C@@H](CC(C)(C)C)[C@](C#N)(c2ccc(Cl)cc2F)[C@H]1c1cccc(Cl)c1F [idasanutlin]
Outline: as §1

[5] = compound: COc1cc(Nc2ncc3c(n2)-c2ccc(Cl)cc2C(c2c(F)cccc2OC)=NC3)ccc1C(=O)O [alisertib]
Outline: as §1

[6] = compound: COc1cc2nc(-c3cc(F)ccc3O)nc(N[C@@H]3CNC[C@H]3C(C)(C)O)c2cc1OC
Outline: as §1

[7] = compound: COc1cc2ncnc(Nc3ccc(F)c(Cl)c3)c2cc1OCCCN1CCOCC1 [gefitinib]
Outline: as §1

[8] = compound: COc1cccc2cc(-c3nc([C@H]4CC[C@H](C(=O)O)CC4)n4ncnc(N)c34)[nH]c12
Outline: as §1

[9] = compound: CS(=O)(=O)CCNCc1ccc(-c2ccc3ncnc(Nc4ccc(OCc5cccc(F)c5)c(Cl)c4)c3c2)o1 [lapatinib]
Outline: as §1

[10] = compound: CS(=O)(=O)N1CCN(Cc2cc3nc(-c4cccc5[nH]ncc45)nc(N4CCOCC4)c3s2)CC1 [pictilisib]
Outline: as §1

[11] = compound: CS(=O)(=O)c1ccc(-c2cnc(N)c(C(=O)Nc3ccccc3)n2)cc1
Outline: as §1

[12] = compound: C[C@@H](Oc1cc(-c2cnn(C3CCNCC3)c2)cnc1N)c1c(Cl)ccc(F)c1Cl [crizotinib]
Outline: as §1

[13] = compound: C[C@@H]1COCCN1C2=NC(=NC(=C2)C3(CC3)S(=O)(=O)C)C4=C5C=CNC5=CC=C4
Outline: as §1

[14] = compound: C[C@H](C1=CC=C(C=C1)C(=O)NC2=C3C=CNC3=NC=C2)N
Outline: as §1

[15] = compound: C[C@H](Nc1ncnc2nc[nH]c12)c1cc2cccc(Cl)c2c(=O)n1-c1ccccc1 [duvelisib]
Outline: as §1

[16] = compound: Cc1cc(Nc2cc(CN3CCOCC3)c3nc(C)c(Cc4ccc(Cl)cc4F)n3n2)n[nH]1 [gandotinib]
Outline: as §1

[17] = compound: Cc1cc(Nc2cc(N3CCN(C)CC3)nc(Sc3ccc(NC(=O)C4CC4)cc3)n2)n[nH]1 [tozasertib]
Outline: as §1

[18] = compound: Cc1cc(SCc2sc(-c3ccc(C(F)(F)F)cc3)nc2C)ccc1OCC(=O)O
Outline: as §1

[19] = compound: Cc1ccc(-n2nc(C(C)(C)C)cc2NC(=O)Nc2ccc(OCCN3CCOCC3)c3ccccc23)cc1 [doramapimod]
Outline: as §1

[20] = compound: Cc1ccc(C(=O)N(CCCN)[C@@H](c2nc3cc(Cl)ccc3c(=O)n2Cc2ccccc2)C(C)C)cc1 [ispinesib]
Outline: as §1

Measured: log2 fold change

MBOAT2 (UniProt Q6ZWT7)
inactive: [1] -0.012 | [2] -0.032 | [3] -0.003 | [4] -0.077 | [5] -0.054 | [6] -0.004 | [7] 0 | [8] 0.064 | [9] 0.031 | [10] -0.018 | [11] -0.03 | [12] 0.042 | [13] -0.06 | [14] -0.097 | [15] 0.019 | [16] -0.057 | [17] 0.027 | [18] -0.039 | [19] 0.009 | [20] -0.007

MAX (UniProt P61244)
inactive: [1] -0.024 | [2] 0.02 | [3] -0.036 | [4] 0.03 | [5] -0.078 | [6] 0.012 | [7] -0.002 | [8] 0.046 | [9] -0.004 | [10] 0.021 | [11] 0.043 | [12] 0.115 | [13] -0.036 | [14] 0.022 | [15] -0.006 | [16] 0.128 | [17] -0.019 | [18] -0.042 | [19] -0.022 | [20] -0.032

MAVS (UniProt Q7Z434)
inactive: [1] 0.047 | [2] -0.022 | [3] 0.016 | [4] -0.004 | [5] -0.093 | [6] 0.008 | [7] 0.014 | [8] 0.053 | [9] -0.009 | [10] 0.053 | [11] -0.003 | [12] 0.008 | [13] 0.037 | [14] -0.061 | [15] 0.008 | [16] -0.023 | [17] 0 | [18] 0.034 | [19] -0.008 | [20] 0.072

MCMBP (UniProt Q9BTE3)
inactive: [1] 0.038 | [2] 0.042 | [3] -0.016 | [4] -0.12 | [5] -0.02 | [6] 0.003 | [7] -0.019 | [8] -0.064 | [9] 0.036 | [10] -0.03 | [11] 0.049 | [12] -0.163 | [13] 0.042 | [14] 0.057 | [15] 0.04 | [16] -0.134 | [17] 0.033 | [18] 0.11 | [19] 0.056 | [20] -0.023

Quoted from the entries so far (2 entries):
MAX (UniProt P61244)
inactive: [1] -0.024 | [2] 0.02 | [3] -0.036 | [4] 0.03 | [5] -0.078 | [6] 0.012 | [7] -0.002 | [8] 0.046 | [9] -0.004 | [10] 0.021 | [11] 0.043 | [12] 0.115 | [13] -0.036 | [14] 0.022 | [15] -0.006 | [16] 0.128 | [17] -0.019 | [18] -0.042 | [19] -0.022 | [20] -0.032

MAVS (UniProt Q7Z434)
inactive: [1] 0.047 | [2] -0.022 | [3] 0.016 | [4] -0.004 | [5] -0.093 | [6] 0.008 | [7] 0.014 | [8] 0.053 | [9] -0.009 | [10] 0.053 | [11] -0.003 | [12] 0.008 | [13] 0.037 | [14] -0.061 | [15] 0.008 | [16] -0.023 | [17] 0 | [18] 0.034 | [19] -0.008 | [20] 0.072

(further entries)

METTL3 (UniProt Q86U44)
inactive: [1] -0.046 | [2] -0.038 | [3] 0.018 | [4] -0.078 | [5] -0.069 | [6] 0.013 | [7] -0.001 | [8] 0.022 | [9] -0.012 | [10] 0.024 | [11] 0.05 | [12] -0.005 | [13] 0.055 | [14] -0.043 | [15] 0.039 | [16] 0.004 | [17] 0.006 | [18] 0.016 | [19] 0.018 | [20] 0.028

MEF2D (UniProt Q14814)
inactive: [1] -0.094 | [2] 0.06 | [3] -0.018 | [4] -0.004 | [5] -0.086 | [6] -0.012 | [7] 0.04 | [8] 0.06 | [9] -0.059 | [10] 0.054 | [11] 0.051 | [12] 0.145 | [13] 0.106 | [14] -0.003 | [15] 0.047 | [16] -0.03 | [17] -0.002 | [18] 0 | [19] -0.077 | [20] -0.09

MFAP1 (UniProt P55081)
inactive: [1] -0.003 | [2] 0.105 | [3] -0.008 | [4] 0.045 | [5] -0.066 | [6] -0.021 | [7] -0.009 | [8] 0.02 | [9] 0.009 | [10] -0.017 | [11] 0.013 | [12] 0.014 | [13] -0.056 | [14] -0.058 | [15] -0.008 | [16] 0.125 | [17] -0.023 | [18] -0.081 | [19] -0.042 | [20] -0.009

MEMO1 (UniProt Q9Y316)
inactive: [1] -0.005 | [2] -0.086 | [3] 0.055 | [4] -0.104 | [5] -0.113 | [6] 0.016 | [7] 0.035 | [8] 0.04 | [9] 0.046 | [10] -0.058 | [11] 0.01 | [12] -0.042 | [13] 0.074 | [14] -0.029 | [15] 0.062 | [16] -0.073 | [17] -0.029 | [18] 0.037 | [19] 0.031 | [20] 0.017

MIA2 (UniProt Q96PC5)
inactive: [1] -0.017 | [2] 0.121 | [3] 0.037 | [4] -0.017 | [5] 0.069 | [6] 0.027 | [7] 0.034 | [8] -0.109 | [9] 0.029 | [10] -0.019 | [11] 0.001 | [12] 0.015 | [13] 0.006 | [14] -0.059 | [16] -0.034 | [18] 0.044 | [19] -0.01 | [20] 0.011

MCUB (UniProt Q9NWR8)
inactive: [1] -0.055 | [2] -0.105 | [3] 0.161 | [4] 0.019 | [5] 0.086 | [6] 0.01 | [7] 0.203 | [8] -0.133 | [9] -0.008 | [10] 0.062 | [11] -0.044 | [12] 0.079 | [13] -0.056 | [14] -0.012 | [15] 0.126 | [16] -0.155 | [17] -0.063 | [18] -0.031 | [19] -0.059 | [20] -0.074

MED17 (UniProt Q9NVC6)
inactive: [1] 0.004 | [2] 0.019 | [3] -0.052 | [4] 0.166 | [5] -0.08 | [6] 0.044 | [7] 0.016 | [8] -0.018 | [9] -0.063 | [10] 0.089 | [11] -0.02 | [12] -0.004 | [13] 0.028 | [14] 0.119 | [16] 0.007 | [18] 0.109 | [19] 0.022 | [20] -0.049

METTL7A (UniProt Q9H8H3)
inactive: [1] -0.059 | [2] -0.035 | [3] 0.05 | [4] -0.011 | [5] 0.001 | [6] -0.061 | [7] -0.023 | [8] 0.027 | [9] -0.062 | [10] 0.014 | [11] 0.053 | [12] 0.133 | [13] 0.018 | [14] -0.102 | [15] 0.041 | [16] 0.018 | [17] -0.005 | [18] 0 | [19] -0.032 | [20] 0.071

MFSD11 (UniProt O43934)
active: [2] -0.464 | [12] -0.683
inactive: [1] -0.029 | [3] -0.003 | [4] -0.055 | [5] -0.009 | [6] -0.046 | [7] -0.064 | [8] -0.002 | [9] 0.041 | [10] 0.02 | [11] -0.098 | [13] -0.223 | [14] 0.074 | [16] 0.036 | [18] -0.063 | [19] 0.008

MBD3 (UniProt O95983)
inactive: [1] -0.071 | [2] 0.023 | [3] 0.011 | [4] 0.03 | [5] -0.111 | [6] -0.084 | [7] -0.003 | [8] -0.008 | [9] 0.038 | [10] -0.005 | [11] -0.032 | [12] -0.067 | [13] 0.019 | [14] 0.13 | [15] -0.012 | [16] -0.018 | [17] 0.048 | [18] -0.1 | [19] 0.038 | [20] -0.129

METAP1 (UniProt P53582)
inactive: [1] 0.139 | [2] 0.017 | [3] -0.013 | [4] 0.034 | [5] -0.024 | [6] 0.007 | [7] 0.015 | [8] -0.022 | [9] -0.041 | [10] 0.04 | [11] 0.009 | [12] 0.013 | [13] -0.035 | [14] -0.016 | [15] 0.069 | [16] 0.073 | [17] -0.022 | [18] 0.026 | [19] -0.067 | [20] 0.062
